# According to US6656735:
# For at least one entry, the source does not settle the construct or the ends of the probe. For some of these results: Protein sequences can lack the tags named with them.
# Tests used:
# [1] = target: T1, Engrailed 2 full length (En2, ChEn2) (Gallus gallus) (UniProt Q05917); assay: EMSA; conditions: partially purified En2; fragment shifts; purified recombinant protein; label: 32P
# T1 sequence (looked up): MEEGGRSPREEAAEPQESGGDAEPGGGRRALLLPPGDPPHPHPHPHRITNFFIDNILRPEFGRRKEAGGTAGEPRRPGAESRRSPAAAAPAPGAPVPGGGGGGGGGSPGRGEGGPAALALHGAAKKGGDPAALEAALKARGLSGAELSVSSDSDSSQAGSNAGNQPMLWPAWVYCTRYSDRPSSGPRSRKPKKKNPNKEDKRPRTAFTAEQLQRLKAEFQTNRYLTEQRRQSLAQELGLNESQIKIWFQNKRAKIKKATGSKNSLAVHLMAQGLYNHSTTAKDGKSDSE
# [2] = target: EnHD (Engrailed 2 homeodomain, 60 aa) (Gallus gallus) (UniProt Q05917); assay: footprint; conditions: DNase I, 5 specific footprints; 2.5 mM MgCl2, on ice; purified recombinant protein; label: 32P
Sequence,binding result [1],binding result [2]
CTGAATTGCAACCTGCCCTGCCCCTTGTTTAGCTTCCCAAGTACTGGGCTTACAGTAGACTTGCACTGTAACACAAGCCTAGATAATAAACTTCTTTTGTGATATGTATGCAGTCTGTAACAATACAAAGTGGATTATGATGCACATTAAAATTCTGATACTGCTGTAGTGACCAAAACTATCTTTTCTTGGTGTCTTTAATTCAAATGGCTCATTTAATGCTTCATTTTAACTACCTGTAAGGGCTGCACCCTAAGCATTTACAGTTCATTTTAGTTCATAGGCTGCTTATGTAGACATGGTAACTTTATGAGTTAACAAGGATGCAGCCAGTAATAAAGGGTGGACTTGCCTTTGCATTCATAATGTAATATATTATCTTTAATTCATTACTCCATGGCAACACTGAAGTCGGTGTCTAAGACAGTGAGGACACAGCTACACTGCGTGTCTCTGTTTTGTGCTTGGCATTGAGCAAAGGCACTGGTAAGGGACCCAAAATGATAGCTCCTCTCTACATTCTCAGAGCGGATACCTAAGTAACAAGTGGCTTAAACACTCCATGAAGAAATATGAAATTATAACCAAGGAAAGAACCCTGAACAATACTCAAATAATTAGTCATTAAAAAAAATAAAGGCATATGAGCCAGCCTGG (double strand) [BPAG1e promoter BstNI fragment -2226 to -1569],binds,binds
CTTAAATATGCTGTGGCGTGATATGCAATGCACTGCAAATACTATGCTGATAACTATTCTAAAGAATCCTGCCTACAGCCATTCATTTGCTTGCTGAGGTTTGCCTTTTGTAGCCAGCATTAAAGCCCTGCAAGTACGGGCAGAGCAGGACGATTGGGCGTCACTGGGAAAGATATGCCAAATATTTTCACCAAGAGTCATCCAGCTTCAACCACCTAAAAAACAACTCAGGTACACAGGAGCCCGGGCAGCACCAGTGAAGGTAATGCTATCAATACCAAGCACCAACCAGAAACACAAAGCTCAGATCACACAGCTGGACAAATGCTGGACAGCAAGCAGATCCCACGTGCTTCCTAACACAAGGTAAAATGCTGGACTAATCAATAAGTCAATAATCAATAAGCAAGCACACAAATTTAATGAGAAACCAAATCTGTTTCCATTTGACCATCTCTTCCATTGTTCACCGCATTAAATTAACTGGAAAAATGTTCAATTACTTTTTCTTTGTGTGATAAACTCTCTCTCCTAAGCCACTACTGTTTGGATTCTAAAAGCCAAAGACTCCACGCAGAATATTGGCTCAGTAACTAAGTGTGAATGTGTCTGGGCTTGCTTCTTCTTCACACAGACTAG (double strand) [BPAG1e promoter BstNI fragment -810 to -89],binds,binds
